# Data as given in PubChem BioAssay AID743454 (Peter MacCallum Cancer Centre, 2014)
# Test: 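Knock-downs lowering viability or raising caspase 3/7 activity in vorinostat-treated resistant cells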 (primary screen)
# System: human HCT116-VR colon cancer cells, selected for vorinostat resistance
# Knock-down reagent: siRNA pool against human genes, 40 nM siRNA pool
# Time to read-out: vorinostat for 24 h, read-out about 72 h after transfection
# Conditions: vorinostat at 2.5 µM final
# Read-out: 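Two measures, CellTiter-Fluor viability and luminescent caspase 3/7 activity, each as fold change against same-plate mock wells, mean of duplicates, then screen-wide robust z-score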
# Scale: viability robust z-score: higher = more viable cells than screen typical; caspase robust z-score: higher = more caspase 3/7 activity than screen typical
# Active means: 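a knock-down is a hit when classed RV1 or RV2 for lowered viability, or CA1 or CA2 for caspase activation; those lethal without drug were dropped; hits were retested singly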
# Shown is an unselected part of about 18,000 deposited reagents. In the full data, 450 (2.5%) were called active. 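Single biological run; no consistent viability z cut-off exists, so the class columns, not z-scores, define the calls.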
gene,viability hit class,caspase hit class,viability robust z-score,caspase robust z-score,outcome
NAA38 (GeneID 84316),no change,no change,0.02,0.92,inactive
DTWD2 (GeneID 285605),no change,no change,-0.04,1.4,inactive
PIM2 (GeneID 11040),no change,no change,-0.12,-1,inactive
TMEM64 (GeneID 169200),no change,no change,1.25,-0.08,inactive
ANXA6 (GeneID 309),no change,no change,-0.6,-0.35,inactive
SLC25A20 (GeneID 788),no change,no change,-0.21,-0.47,inactive
COG5 (GeneID 10466),no change,no change,0.72,1.81,inactive
GOLT1A (GeneID 127845),no change,no change,-0.05,0.15,inactive
MPHOSPH8 (GeneID 54737),no change,no change,0.83,0.56,inactive
PAK6 (GeneID 56924),no change,no change,1.22,0.11,inactive
THNSL1 (GeneID 79896),no change,no change,0.7,-0.9,inactive
SLC6A3 (GeneID 6531),no change,no change,0.7,-0.25,inactive
WDR54 (GeneID 84058),no change,no change,-1.11,-0.01,inactive
ARL8A (GeneID 127829),no change,no change,-0.84,-0.94,inactive
VPS72 (GeneID 6944),no change,no change,0,-0.66,inactive
CEP131 (GeneID 22994),no change,no change,1.4,-0.16,inactive
TARP (GeneID 445347),no change,no change,-0.3,0.01,inactive
PCNX1 (GeneID 22990),no change,no change,-0.26,1.53,inactive
CLCA4 (GeneID 22802),no change,no change,-0.34,-0.57,inactive
SRCAP (GeneID 10847),no change,no change,-2.28,0.68,inactive
IL15 (GeneID 3600),no change,no change,0.86,0.74,inactive
EMILIN1 (GeneID 11117),no change,no change,-1,-0.38,inactive
IRF1 (GeneID 3659),no change,no change,1.86,-0.36,inactive
ABCE1 (GeneID 6059),no change,no change,-0.13,-0.44,inactive
YWHAE (GeneID 7531),no change,no change,-0.91,-0.75,inactive
PNPLA1 (GeneID 285848),no change,no change,-0.5,0.09,inactive
PITPNM1 (GeneID 9600),no change,no change,0.04,0.31,inactive
SLC40A1 (GeneID 30061),no change,no change,0.24,-0.97,inactive
BRD8 (GeneID 10902),no change,no change,-0.57,0.68,inactive
TSPAN2 (GeneID 10100),no change,no change,0.32,-0.23,inactive
EIF2D (GeneID 1939),no change,no change,0.9,-0.2,inactive
PDHB (GeneID 5162),no change,no change,0,-0.77,inactive
TRAF7 (GeneID 84231),no change,no change,0.24,-0.92,inactive
STX7 (GeneID 8417),no change,no change,2.21,-0.15,inactive
KLHL42 (GeneID 57542),no change,no change,0,-0.55,inactive
KCTD6 (GeneID 200845),no change,no change,0.42,-0.98,inactive
ZNRF4 (GeneID 148066),no change,no change,0.6,4.42,inactive
KBTBD11 (GeneID 9920),no change,no change,1.14,0.88,inactive
GLIPR2 (GeneID 152007),no change,no change,-0.1,-1.17,inactive
LPIN3 (GeneID 64900),no change,no change,0.68,-0.62,inactive
GNG12 (GeneID 55970),no change,no change,-0.58,0.19,inactive
ITGA2B (GeneID 3674),no change,no change,-1.27,1.33,inactive
ITSN2 (GeneID 50618),no change,no change,-2.06,0.5,inactive
GLI4 (GeneID 2738),no change,no change,0.44,4.98,inactive
GADL1 (GeneID 339896),no change,no change,0.64,0,inactive
ZFP69 (GeneID 339559),no change,no change,0.54,-0.88,inactive
DACT3 (GeneID 147906),no change,no change,-0.55,-0.17,inactive
PKP3 (GeneID 11187),no change,no change,0.2,0.01,inactive
F11R (GeneID 50848),no change,no change,-0.67,-0.88,inactive
MORC1 (GeneID 27136),no change,no change,-1.01,1.3,inactive
MRPS31 (GeneID 10240),no change,no change,-0.26,-0.55,inactive
PLG (GeneID 5340),no change,no change,0.77,-0.28,inactive
HNRNPL (GeneID 3191),no change,no change,-0.21,3.46,inactive
FAM43A (GeneID 131583),no change,no change,-0.49,-0.3,inactive
KDM5C (GeneID 8242),no change,no change,0.12,-0.36,inactive
ZNF137P (GeneID 7696),no change,no change,0.5,-0.29,inactive
PGLS (GeneID 25796),no change,no change,0.12,2.88,inactive

Laid out differently: entries from further up
DTWD2 (GeneID 285605)
- viability hit class: no change
- caspase hit class: no change
- viability robust z-score: -0.04
- caspase robust z-score: 1.4
- outcome: inactive

PIM2 (GeneID 11040)
- viability hit class: no change
- caspase hit class: no change
- viability robust z-score: -0.12
- caspase robust z-score: -1
- outcome: inactive

TMEM64 (GeneID 169200)
- viability hit class: no change
- caspase hit class: no change
- viability robust z-score: 1.25
- caspase robust z-score: -0.08
- outcome: inactive

ANXA6 (GeneID 309)
- viability hit class: no change
- caspase hit class: no change
- viability robust z-score: -0.6
- caspase robust z-score: -0.35
- outcome: inactive

SLC25A20 (GeneID 788)
- viability hit class: no change
- caspase hit class: no change
- viability robust z-score: -0.21
- caspase robust z-score: -0.47
- outcome: inactive

COG5 (GeneID 10466)
- viability hit class: no change
- caspase hit class: no change
- viability robust z-score: 0.72
- caspase robust z-score: 1.81
- outcome: inactive

GOLT1A (GeneID 127845)
- viability hit class: no change
- caspase hit class: no change
- viability robust z-score: -0.05
- caspase robust z-score: 0.15
- outcome: inactive
